B1: 34T, 72A (protein, listed as Rattus norvegicus)
chain: AFDGTWKVDRNENYEKFMEKMGINVVKRKLGAHTNLKLTITQEGNKFTVKESSNFRNIDVVFELGVDFAYSAADGTELTGTWTMEGNKLVGKFKRVDNGKELIAVREISGNELIQTYTYEGVEAKRIFKKE
modifications: PEPTIDE (1)...(131) wild-type rat intestinal fatty acid binding protein
B2: 36E2, 72A (protein, listed as Rattus norvegicus)
chain: AFDGTWKVDRNENYEKFMEKMGINVVKRKLGAHDNEKLTITQEGNKFTVKESSNFRNIDVVFELGVDFAYSAADGTELTGTWTMEGNKLVGKFKRVDNGKELIAVREISGNELIQTYTYEGVEAKRIFKKE
modifications: PEPTIDE (1)...(131) wild-type rat intestinal fatty acid binding protein
B3: 36I1, 72A (protein, listed as Rattus norvegicus)
chain: AFDGTWKVDRNENYEKFMEKMGINVVKRKLGAHDNIKLTITQEGNKFTVKESSNFRNIDVVFELGVDFAYSAADGTELTGTWTMEGNKLVGKFKRVDNGKELIAVREISGNELIQTYTYEGVEAKRIFKKE
modifications: PEPTIDE (1)...(131) wild-type rat intestinal fatty acid binding protein
B4: 36K, 72A (protein, listed as Rattus norvegicus)
chain: AFDGTWKVDRNENYEKFMEKMGINVVKRKLGAHDNKKLTITQEGNKFTVKESSNFRNIDVVFELGVDFAYSAADGTELTGTWTMEGNKLVGKFKRVDNGKELIAVREISGNELIQTYTYEGVEAKRIFKKE
modifications: PEPTIDE (1)...(131) wild-type rat intestinal fatty acid binding protein
B5: 36M, 72A (protein, listed as Rattus norvegicus)
chain: AFDGTWKVDRNENYEKFMEKMGINVVKRKLGAHDNMKLTITQEGNKFTVKESSNFRNIDVVFELGVDFAYSAADGTELTGTWTMEGNKLVGKFKRVDNGKELIAVREISGNELIQTYTYEGVEAKRIFKKE
modifications: PEPTIDE (1)...(131) wild-type rat intestinal fatty acid binding protein
B6: 36R, 72A (protein, listed as Rattus norvegicus)
chain: AFDGTWKVDRNENYEKFMEKMGINVVKRKLGAHDNRKLTITQEGNKFTVKESSNFRNIDVVFELGVDFAYSAADGTELTGTWTMEGNKLVGKFKRVDNGKELIAVREISGNELIQTYTYEGVEAKRIFKKE
modifications: PEPTIDE (1)...(131) wild-type rat intestinal fatty acid binding protein
B7: 34Y, 72A (protein, listed as Rattus norvegicus)
chain: AFDGTWKVDRNENYEKFMEKMGINVVKRKLGAHYNLKLTITQEGNKFTVKESSNFRNIDVVFELGVDFAYSAADGTELTGTWTMEGNKLVGKFKRVDNGKELIAVREISGNELIQTYTYEGVEAKRIFKKE
modifications: PEPTIDE (1)...(131) wild-type rat intestinal fatty acid binding protein
B8: 36P, 72A (protein, listed as Rattus norvegicus)
chain: AFDGTWKVDRNENYEKFMEKMGINVVKRKLGAHDNPKLTITQEGNKFTVKESSNFRNIDVVFELGVDFAYSAADGTELTGTWTMEGNKLVGKFKRVDNGKELIAVREISGNELIQTYTYEGVEAKRIFKKE
modifications: PEPTIDE (1)...(131) wild-type rat intestinal fatty acid binding protein
B9: 102N, 72A (protein, listed as Rattus norvegicus)
chain: AFDGTWKVDRNENYEKFMEKMGINVVKRKLGAHDNLKLTITQEGNKFTVKESSNFRNIDVVFELGVDFAYSAADGTELTGTWTMEGNKLVGKFKRVDNGKENIAVREISGNELIQTYTYEGVEAKRIFKKE
modifications: PEPTIDE (1)...(131) wild-type rat intestinal fatty acid binding protein
B10: 34W, 72A (protein, listed as Rattus norvegicus)
chain: AFDGTWKVDRNENYEKFMEKMGINVVKRKLGAHWNLKLTITQEGNKFTVKESSNFRNIDVVFELGVDFAYSAADGTELTGTWTMEGNKLVGKFKRVDNGKELIAVREISGNELIQTYTYEGVEAKRIFKKE
modifications: PEPTIDE (1)...(131) wild-type rat intestinal fatty acid binding protein
B11: 36Y, 72A (protein, listed as Rattus norvegicus)
chain: AFDGTWKVDRNENYEKFMEKMGINVVKRKLGAHDNYKLTITQEGNKFTVKESSNFRNIDVVFELGVDFAYSAADGTELTGTWTMEGNKLVGKFKRVDNGKELIAVREISGNELIQTYTYEGVEAKRIFKKE
modifications: PEPTIDE (1)...(131) wild-type rat intestinal fatty acid binding protein
B12: 36G2, 72A (protein, listed as Rattus norvegicus)
chain: AFDGTWKVDRNENYEKFMEKMGINVVKRKLGAHDNGKLTITQEGNKFTVKESSNFRNIDVVFELGVDFAYSAADGTELTGTWTMEGNKLVGKFKRVDNGKELIAVREISGNELIQTYTYEGVEAKRIFKKE
modifications: PEPTIDE (1)...(131) wild-type rat intestinal fatty acid binding protein
B13: 36F1, 72A (protein, listed as Rattus norvegicus)
chain: AFDGTWKVDRNENYEKFMEKMGINVVKRKLGAHDNFKLTITQEGNKFTVKESSNFRNIDVVFELGVDFAYSAADGTELTGTWTMEGNKLVGKFKRVDNGKELIAVREISGNELIQTYTYEGVEAKRIFKKE
modifications: PEPTIDE (1)...(131) wild-type rat intestinal fatty acid binding protein
B14: 36S, 72A (protein, listed as Rattus norvegicus)
chain: AFDGTWKVDRNENYEKFMEKMGINVVKRKLGAHDNSKLTITQEGNKFTVKESSNFRNIDVVFELGVDFAYSAADGTELTGTWTMEGNKLVGKFKRVDNGKELIAVREISGNELIQTYTYEGVEAKRIFKKE
modifications: PEPTIDE (1)...(131) wild-type rat intestinal fatty acid binding protein
B15: 36D1, 72A (protein, listed as Rattus norvegicus)
chain: AFDGTWKVDRNENYEKFMEKMGINVVKRKLGAHDNDKLTITQEGNKFTVKESSNFRNIDVVFELGVDFAYSAADGTELTGTWTMEGNKLVGKFKRVDNGKELIAVREISGNELIQTYTYEGVEAKRIFKKE
modifications: PEPTIDE (1)...(131) wild-type rat intestinal fatty acid binding protein
B16: 36L, 72A wt (protein, listed as Rattus norvegicus)
chain: AFDGTWKVDRNENYEKFMEKMGINVVKRKLGAHDNLKLTITQEGNKFTVKESSNFRNIDVVFELGVDFAYSAADGTELTGTWTMEGNKLVGKFKRVDNGKELIAVREISGNELIQTYTYEGVEAKRIFKKE
modifications: PEPTIDE (1)...(131) wild-type rat intestinal fatty acid binding protein
B17: 36A, 72A (protein, listed as Rattus norvegicus)
chain: AFDGTWKVDRNENYEKFMEKMGINVVKRKLGAHDNAKLTITQEGNKFTVKESSNFRNIDVVFELGVDFAYSAADGTELTGTWTMEGNKLVGKFKRVDNGKELIAVREISGNELIQTYTYEGVEAKRIFKKE
modifications: PEPTIDE (1)...(131) wild-type rat intestinal fatty acid binding protein
B18: 36C3, 72A (protein, listed as Rattus norvegicus)
chain: AFDGTWKVDRNENYEKFMEKMGINVVKRKLGAHDNCKLTITQEGNKFTVKESSNFRNIDVVFELGVDFAYSAADGTELTGTWTMEGNKLVGKFKRVDNGKELIAVREISGNELIQTYTYEGVEAKRIFKKE
modifications: PEPTIDE (1)...(131) wild-type rat intestinal fatty acid binding protein
B19: 36Q, 72A (protein, listed as Rattus norvegicus)
chain: AFDGTWKVDRNENYEKFMEKMGINVVKRKLGAHDNQKLTITQEGNKFTVKESSNFRNIDVVFELGVDFAYSAADGTELTGTWTMEGNKLVGKFKRVDNGKELIAVREISGNELIQTYTYEGVEAKRIFKKE
modifications: PEPTIDE (1)...(131) wild-type rat intestinal fatty acid binding protein
B20: 34V, 72A (protein, listed as Rattus norvegicus)
chain: AFDGTWKVDRNENYEKFMEKMGINVVKRKLGAHVNLKLTITQEGNKFTVKESSNFRNIDVVFELGVDFAYSAADGTELTGTWTMEGNKLVGKFKRVDNGKELIAVREISGNELIQTYTYEGVEAKRIFKKE
modifications: PEPTIDE (1)...(131) wild-type rat intestinal fatty acid binding protein
B21: 36H1, 72A (protein, listed as Rattus norvegicus)
chain: AFDGTWKVDRNENYEKFMEKMGINVVKRKLGAHDNHKLTITQEGNKFTVKESSNFRNIDVVFELGVDFAYSAADGTELTGTWTMEGNKLVGKFKRVDNGKELIAVREISGNELIQTYTYEGVEAKRIFKKE
modifications: PEPTIDE (1)...(131) wild-type rat intestinal fatty acid binding protein
B22: 36N, 72A (protein, listed as Rattus norvegicus)
chain: AFDGTWKVDRNENYEKFMEKMGINVVKRKLGAHDNNKLTITQEGNKFTVKESSNFRNIDVVFELGVDFAYSAADGTELTGTWTMEGNKLVGKFKRVDNGKELIAVREISGNELIQTYTYEGVEAKRIFKKE
modifications: PEPTIDE (1)...(131) wild-type rat intestinal fatty acid binding protein

The data set in a line: Baseline fluorescence ratio Ro of probe in absence of analyte. The conditions noted are these: baseline fluorescence ratio of probe, no fatty acid.
As for B1, the AvgOfRo was 0.34.

Turning to B2, the AvgOfRo is listed as 0.31.

For the molecule B3, the AvgOfRo was found to be 0.29.

Take B4: the AvgOfRo came to 0.43.

Turning to B5, the AvgOfRo was found to be 0.20.

For the molecule B6, the AvgOfRo is on record as 0.30.

Turning to B7, the AvgOfRo is recorded as 0.18.

As to B8, the AvgOfRo was 0.44.

Turning to B9, the AvgOfRo is on record as 0.32.

For the molecule B10, the AvgOfRo is 0.24 and the Ro is listed as 0.187.

As to B11, the AvgOfRo came out at 0.24.

Turning to B12, the AvgOfRo amounted to 0.36.

In the case of B13, the AvgOfRo came to 0.25.

B14: the AvgOfRo is 0.31.

Take B15: the AvgOfRo is recorded as 0.42.

With B16, the AvgOfRo stood at 0.16.

On to B17, for which the AvgOfRo was 0.27.

Consider B18, for which the AvgOfRo came to 0.38.

Regarding B19, the AvgOfRo is recorded as 0.30 and the Ro is 0.247.

As to B20, the AvgOfRo is recorded as 0.17.

Take B21: the AvgOfRo turned out to be 0.34.

As for B22, the AvgOfRo was 0.35.

These data come from patent US20060257938A1, “Method of screening for drugs that block ligand binding to a lipid binding protein” (priority 2005, published 2006).
